Test results from PMC5366859.
Results are given in words; binding and its absence hold for the method and conditions named. For part of these data: In cells and extracts the contact can be indirect. Some results given as binding are weak or reduced against the parent protein; the word gives no strength. For part of these data: Where a sequence is shown, tags or fusion partners need not be part of it.

By UniProt entry, the sequences of proteins in these tests, tags left out.
UniProt Q9FTA2: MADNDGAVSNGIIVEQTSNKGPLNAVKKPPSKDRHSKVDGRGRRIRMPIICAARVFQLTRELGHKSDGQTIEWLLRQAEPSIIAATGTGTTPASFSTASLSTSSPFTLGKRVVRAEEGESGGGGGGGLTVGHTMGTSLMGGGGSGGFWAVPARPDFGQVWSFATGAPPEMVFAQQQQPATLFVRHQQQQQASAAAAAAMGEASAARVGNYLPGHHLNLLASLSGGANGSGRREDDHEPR

Key:
[1] = target: T1, A. thaliana TIMING OF CAB EXPRESSION1 (AtTOC1), yeast two-hybrid bait (A. thaliana) (UniProt Q9LKL2); assay: two-hybrid; yeast; AtTOC1 or AaTOC1 as bait (pGBKT7-BD), AtCHE or AaCHE as prey (pGADT7-AD); quadruple dropout medium with X-α-gal (QDO/X) and quantitative α-galactosidase (PNG) assay relative to p53-T
T1 sequence: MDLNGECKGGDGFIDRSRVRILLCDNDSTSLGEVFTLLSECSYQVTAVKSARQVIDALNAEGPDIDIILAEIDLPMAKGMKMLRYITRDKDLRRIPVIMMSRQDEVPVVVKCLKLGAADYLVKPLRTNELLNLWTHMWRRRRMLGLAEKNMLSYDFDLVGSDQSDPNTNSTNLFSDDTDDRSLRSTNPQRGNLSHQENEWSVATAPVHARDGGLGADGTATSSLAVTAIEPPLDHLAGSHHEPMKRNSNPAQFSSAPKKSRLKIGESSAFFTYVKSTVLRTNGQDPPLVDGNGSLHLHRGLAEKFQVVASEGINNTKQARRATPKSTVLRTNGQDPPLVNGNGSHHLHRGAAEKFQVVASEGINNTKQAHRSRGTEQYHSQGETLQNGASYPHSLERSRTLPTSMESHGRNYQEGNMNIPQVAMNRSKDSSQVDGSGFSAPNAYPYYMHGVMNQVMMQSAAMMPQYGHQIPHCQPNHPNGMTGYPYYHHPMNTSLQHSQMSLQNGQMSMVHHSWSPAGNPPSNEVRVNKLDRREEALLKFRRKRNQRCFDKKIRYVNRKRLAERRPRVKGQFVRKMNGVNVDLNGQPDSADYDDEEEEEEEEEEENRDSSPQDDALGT

[2] = target: A. thaliana CCA1 HIKING EXPEDITION (AtCHE), yeast two-hybrid bait (A. thaliana) (UniProt Q9FTA2); assay: two-hybrid; yeast; AtCHE or AaCHE as bait (pGBKT7-BD, Y2H gold), AtHD1 or AaHD1 as prey (pGADT7-AD, Y187), mated; limited growth in the triple dropout media
[3] = target: NGFP:AtCHE (A. thaliana) (UniProt Q9FTA2); assay: split reporter; split GFP complementation in E. coli Rossetta2 (DE3): NGFP:CHE (T7 promoter, IPTG) co-expressed with HD1:CGFP (PBAD promoter, arabinose); GFP fluorescence microscopy and flow cytometry (FACSCalibur, ~10,000 events), 20 °C for 2 days

## A. thaliana CCA1 HIKING EXPEDITION (AtCHE), yeast two-hybrid prey (from UniProt Q9FTA2 1-239)
[1]
  binding: binds

B1: A. thaliana HISTONE …1 (AtHD1), yeast two-hybrid prey (protein, UniProt O22446 1-501)
chain: MDTGGNSLASGPDGVKRKVCYFYDPEVGNYYYGQGHPMKPHRIRMTHALLAHYGLLQHMQVLKPFPARDRDLCRFHADDYVSFLRSITPETQQDQIRQLKRFNVGEDCPVFDGLYSFCQTYAGGSVGGSVKLNHGLCDIAINWAGGLHHAKKCEASGFCYVNDIVLAILELLKQHERVLYVDIDIHHGDGVEEAFYATDRVMTVSFHKFGDYFPGTGHIQDIGYGSGKYYSLNVPLDDGIDDESYHLLFKPIMGKVMEIFRPGAVVLQCGADSLSGDRLGCFNLSIKGHAECVKFMRSFNVPLLLLGGGGYTIRNVARCWCYETGVALGVEVEDKMPEHEYYEYFGPDYTLHVAPSNMENKNSRQMLEEIRNDLLHNLSKLQHAPSVPFQERPPDTETPEVDEDQEDGDKRWDPDSDMDVDDDRKPIPSRVKREAVEPDTKDKDGLKGIMERGKGCEVEVDESGSTKVTGVNPVGVEEASVKMEEEGTNKGGAEQAFPPKT
[2]
  binding: binds weakly

B2: AtHD1:CGFP (protein, UniProt O22446 1-501)
chain: B1 chain
[3]
  binding: binds
